Measurements from US9409122B2, “Gas capture process” (Commonwealth Scientific and Industrial Research Organisation, priority 2011, dated 2016).

Tests used:
[1] = CO2 absorption-desorption (CO2 sequestration in 10% CO2 and 90% N2), quantitative 13C NMR; format: physicochemical; conditions: for Cyclic capacity in CO2 absorption/desorption / Cyclic capacity in CO2 absorption/desorption, Molar capacity: difference between maximum and minimum CO2 loading, absorption 40° C., desorption 90° C.; for Maximum CO2 loading, Molar capacity: molar ratio of CO2 to amine, 10% CO2 and 90% N2, 18 hours; for Maximum CO2 loading, Molar capacity / Maximum CO2 loading: 2M amine, 40° C.; for Maximum CO2 loading: weight loading calculated from molar ratio, 10% CO2 and 90% N2
[2] = CO2 absorption at 40° C. with CO2 gas (99%); format: physicochemical; conditions: for capacity for CO2 loading: on a mol % basis, absorption at 40° C., CO2 gas (99%), FIG. 2(a)

SMILES	Cyclic capacity in CO2 absorption/desorption [1] [g/g]	Cyclic capacity in CO2 absorption/desorption, Molar capacity [1]	Maximum CO2 loading, Molar capacity [1]	Maximum CO2 loading [1] [g/g]	capacity for CO2 loading [2] [%]	observation during CO2 absorption ([2]; 40° C., solid not measurable by 13C NMR)
CCNC1CCNCC1	0.15	0.43	1.46	0.51	–	–
OCCCNC1CCNCC1	0.09	0.34	1.05	0.29	–	–
OCCCCCCNC1CCNCC1	0.10	0.46	1.15	0.25	–	–
CN(C)CCCNC1CCNCC1	0.18	0.69	1.50	0.39	–	–
CCN(C)C1CCNCC1	0.13	0.43	1.30	0.40	–	–
CN(CCO)C1CCNCC1	0.08	0.28	1.05	0.29	–	–
CN(CCCO)C1CCNCC1	0.09	0.36	1.07	0.27	–	–
CN(CCCCCCO)C1CCNCC1	0.10	0.47	1.01	0.21	–	–
CCN1CCC(N)CC1	0.16	0.46	1.14	0.39	–	–
NC1CCN(CCCO)CC1	0.10	0.35	1.00	0.28	–	–
NC1CCN(CCCCCCO)CC1	0.12	0.56	0.95	0.21	–	–
CCNCC1CCNCC1	0.12	0.38	1.58	0.49	–	–
OCCNCC1CCNCC1	0.10	0.35	1.24	0.38	–	–
OCCCCCCNCC1CCNCC1	0.08	0.39	0.98	0.20	–	–
O=C(O)CNCC1CCNCC1	0.15	0.52	0.70	0.19	–	–
CN(C)CNCC1CCNCC1	0.13	0.53	1.80	0.43	–	–
CCN(C)CC1CCNCC1	0.19	0.52	1.26	0.41	–	–
CN(CCO)CC1CCNCC1	0.11	0.44	1.13	0.29	–	–
NC1CCNCC1 [4-aminopiperidine, reference compound]	–	–	–	–	155	–
NC1CCN(CCO)CC1 [Compound 1, 1-ethanol-4-aminopiperidine]	–	–	–	–	200	–
CCCN1CCC(N)CC1 [Compound 2, 1-propyl-4-aminopiperidine]	–	–	–	–	180	–
OCCNC1CCNCC1 [Compound 3, 4-ethanolaminopiperidine]	–	–	–	–	180	–
CCCNC1CCNCC1 [Compound 4, 4-Propylaminopiperidine]	–	–	–	–	–	formed a large quantity of bicarbonate solid
OCCNC1CCNCC1 [drawing 24]	0.15	0.41	1.02	0.35	–	–
CCCN1CCC(N)CC1 [drawing 33]	0.19	0.61	1.17	0.36	–	–
NC1CCN(CCO)CC1 [drawing 34]	0.14	0.45	1.02	0.31	–	–
